Data as given in paper PMC5402713 (Pain, 2017).

The chains behind the UniProt entries cited, without tags or fusion partners. Residues count along the entry.
UniProt J9SQF3, 1-1709 isoform J9SQF3-12: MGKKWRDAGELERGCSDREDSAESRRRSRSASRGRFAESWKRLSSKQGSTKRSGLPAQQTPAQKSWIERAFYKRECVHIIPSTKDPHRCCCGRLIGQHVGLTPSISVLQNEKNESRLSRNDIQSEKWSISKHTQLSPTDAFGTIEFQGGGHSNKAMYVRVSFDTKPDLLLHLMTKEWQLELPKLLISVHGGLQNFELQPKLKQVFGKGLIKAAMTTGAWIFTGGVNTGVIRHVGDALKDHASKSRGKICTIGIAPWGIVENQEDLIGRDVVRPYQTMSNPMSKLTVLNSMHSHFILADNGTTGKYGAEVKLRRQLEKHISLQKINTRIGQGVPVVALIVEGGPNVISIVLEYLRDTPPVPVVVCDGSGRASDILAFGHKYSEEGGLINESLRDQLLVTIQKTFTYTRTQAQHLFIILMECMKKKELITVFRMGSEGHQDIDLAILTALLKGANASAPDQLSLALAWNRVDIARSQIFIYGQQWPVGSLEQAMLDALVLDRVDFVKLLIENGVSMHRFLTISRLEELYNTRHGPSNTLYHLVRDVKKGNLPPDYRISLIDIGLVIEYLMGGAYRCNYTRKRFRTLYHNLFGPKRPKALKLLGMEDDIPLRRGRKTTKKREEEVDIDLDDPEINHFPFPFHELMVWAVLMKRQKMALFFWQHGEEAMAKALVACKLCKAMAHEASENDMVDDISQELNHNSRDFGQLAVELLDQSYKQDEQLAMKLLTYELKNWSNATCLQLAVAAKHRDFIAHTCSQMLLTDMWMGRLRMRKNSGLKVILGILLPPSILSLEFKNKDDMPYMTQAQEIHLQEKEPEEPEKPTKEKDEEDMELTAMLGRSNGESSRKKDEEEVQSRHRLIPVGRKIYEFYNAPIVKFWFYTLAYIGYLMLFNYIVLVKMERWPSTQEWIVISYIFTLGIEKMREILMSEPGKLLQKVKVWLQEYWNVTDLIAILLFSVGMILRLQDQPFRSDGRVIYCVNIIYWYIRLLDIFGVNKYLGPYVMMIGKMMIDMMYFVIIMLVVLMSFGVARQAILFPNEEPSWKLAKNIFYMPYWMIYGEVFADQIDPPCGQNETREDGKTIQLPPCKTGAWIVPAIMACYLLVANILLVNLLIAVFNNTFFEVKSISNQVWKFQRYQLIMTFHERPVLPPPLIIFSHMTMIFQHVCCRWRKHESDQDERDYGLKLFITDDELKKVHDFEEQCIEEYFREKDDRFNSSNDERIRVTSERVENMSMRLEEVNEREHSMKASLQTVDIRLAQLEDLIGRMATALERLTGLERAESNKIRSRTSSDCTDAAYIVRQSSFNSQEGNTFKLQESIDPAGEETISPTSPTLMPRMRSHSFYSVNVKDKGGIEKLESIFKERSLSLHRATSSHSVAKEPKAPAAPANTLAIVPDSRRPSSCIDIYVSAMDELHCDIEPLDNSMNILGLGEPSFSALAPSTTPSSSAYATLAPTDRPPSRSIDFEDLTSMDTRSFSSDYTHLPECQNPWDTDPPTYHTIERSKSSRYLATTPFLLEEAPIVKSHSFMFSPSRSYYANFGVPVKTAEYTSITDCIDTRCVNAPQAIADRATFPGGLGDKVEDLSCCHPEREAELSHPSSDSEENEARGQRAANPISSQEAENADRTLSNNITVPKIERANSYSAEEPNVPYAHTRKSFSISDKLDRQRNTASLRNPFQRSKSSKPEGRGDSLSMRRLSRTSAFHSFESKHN

Molecular target: mouse TRPM3α2 (Mus musculus, UniProt J9SQF3)
Format: cell-based

IC50: 1300 ± 130 nM
Compound: CNCCCC12CCC(c3ccccc31)c1ccccc12 [maprotiline]
